The target in experiment [1] is endogenous MyD88 (human (endogenous in HCC1806)) (UniProt Q99836). The experiment is described as follows: co-IP; endogenous proteins in HCC1806 lysate; MyD88 antibody or BCA2 antibody overnight at 4 °C, Protein A/G beads 2 hours; Western blot; also in cells with BCA2 knockout or BCA2 overexpression, and after LPS (500 ng/ml) for 0-30 minutes.
Experiment [2] concerns the target MyD88 expressed in HEK293T for Figure 4K (UniProt Q99836). The experiment is described as follows: co-IP; HEK293T transfected with the indicated plasmids, with overexpression of BCA2; coimmunoprecipitation and immunoblot. A general note: In western blotting, separated proteins are transferred to a membrane and probed.
Experiment [3] addresses endogenous BCA2 (human (endogenous in HCC1806)) (UniProt Q9Y4L5). The experiment is described as follows: co-IP; endogenous proteins in HCC1806 lysate; MyD88 antibody or BCA2 antibody overnight at 4 °C, Protein A/G beads 2 hours; Western blot; also in cells with BCA2 knockout or BCA2 overexpression, and after LPS (500 ng/ml) for 0-30 minutes.

Chains of the proteins cited; added tags and fusions are not shown. Residues count along the entry.
UniProt Q99836: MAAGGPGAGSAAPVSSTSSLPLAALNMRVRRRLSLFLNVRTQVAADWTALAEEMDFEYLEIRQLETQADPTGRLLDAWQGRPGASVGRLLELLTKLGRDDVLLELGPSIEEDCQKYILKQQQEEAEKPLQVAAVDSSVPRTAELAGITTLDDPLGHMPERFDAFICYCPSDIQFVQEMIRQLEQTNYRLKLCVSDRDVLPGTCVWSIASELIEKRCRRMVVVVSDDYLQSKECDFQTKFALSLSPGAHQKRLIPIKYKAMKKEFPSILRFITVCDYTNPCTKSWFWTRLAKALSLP
UniProt Q9Y4L5: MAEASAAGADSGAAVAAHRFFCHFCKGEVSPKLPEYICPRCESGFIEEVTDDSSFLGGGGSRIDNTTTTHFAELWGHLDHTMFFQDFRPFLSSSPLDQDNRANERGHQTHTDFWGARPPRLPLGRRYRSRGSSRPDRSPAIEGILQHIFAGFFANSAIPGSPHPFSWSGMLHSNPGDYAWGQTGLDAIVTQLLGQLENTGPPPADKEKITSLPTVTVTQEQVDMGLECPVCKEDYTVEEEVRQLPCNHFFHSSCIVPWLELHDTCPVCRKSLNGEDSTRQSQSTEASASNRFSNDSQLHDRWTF
UniProt P51617: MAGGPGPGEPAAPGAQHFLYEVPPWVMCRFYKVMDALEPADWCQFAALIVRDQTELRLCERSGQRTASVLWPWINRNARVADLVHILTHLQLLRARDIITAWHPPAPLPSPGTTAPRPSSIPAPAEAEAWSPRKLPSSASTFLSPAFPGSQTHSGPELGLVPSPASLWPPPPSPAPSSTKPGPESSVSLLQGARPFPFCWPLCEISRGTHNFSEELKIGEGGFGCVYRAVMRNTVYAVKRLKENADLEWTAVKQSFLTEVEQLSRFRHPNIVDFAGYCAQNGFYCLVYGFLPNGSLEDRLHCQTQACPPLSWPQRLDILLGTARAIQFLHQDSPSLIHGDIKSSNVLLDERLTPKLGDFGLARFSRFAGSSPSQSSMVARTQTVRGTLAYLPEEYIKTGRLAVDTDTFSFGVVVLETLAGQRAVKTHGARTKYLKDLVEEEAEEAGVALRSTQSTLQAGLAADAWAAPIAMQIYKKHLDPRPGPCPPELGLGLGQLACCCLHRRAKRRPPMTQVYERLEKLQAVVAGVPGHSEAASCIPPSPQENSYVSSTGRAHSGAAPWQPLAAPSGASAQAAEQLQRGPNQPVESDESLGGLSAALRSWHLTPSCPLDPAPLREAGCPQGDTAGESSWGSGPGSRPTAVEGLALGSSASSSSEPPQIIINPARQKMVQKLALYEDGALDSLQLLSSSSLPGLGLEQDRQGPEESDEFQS
UniProt O00206, residues 24-839: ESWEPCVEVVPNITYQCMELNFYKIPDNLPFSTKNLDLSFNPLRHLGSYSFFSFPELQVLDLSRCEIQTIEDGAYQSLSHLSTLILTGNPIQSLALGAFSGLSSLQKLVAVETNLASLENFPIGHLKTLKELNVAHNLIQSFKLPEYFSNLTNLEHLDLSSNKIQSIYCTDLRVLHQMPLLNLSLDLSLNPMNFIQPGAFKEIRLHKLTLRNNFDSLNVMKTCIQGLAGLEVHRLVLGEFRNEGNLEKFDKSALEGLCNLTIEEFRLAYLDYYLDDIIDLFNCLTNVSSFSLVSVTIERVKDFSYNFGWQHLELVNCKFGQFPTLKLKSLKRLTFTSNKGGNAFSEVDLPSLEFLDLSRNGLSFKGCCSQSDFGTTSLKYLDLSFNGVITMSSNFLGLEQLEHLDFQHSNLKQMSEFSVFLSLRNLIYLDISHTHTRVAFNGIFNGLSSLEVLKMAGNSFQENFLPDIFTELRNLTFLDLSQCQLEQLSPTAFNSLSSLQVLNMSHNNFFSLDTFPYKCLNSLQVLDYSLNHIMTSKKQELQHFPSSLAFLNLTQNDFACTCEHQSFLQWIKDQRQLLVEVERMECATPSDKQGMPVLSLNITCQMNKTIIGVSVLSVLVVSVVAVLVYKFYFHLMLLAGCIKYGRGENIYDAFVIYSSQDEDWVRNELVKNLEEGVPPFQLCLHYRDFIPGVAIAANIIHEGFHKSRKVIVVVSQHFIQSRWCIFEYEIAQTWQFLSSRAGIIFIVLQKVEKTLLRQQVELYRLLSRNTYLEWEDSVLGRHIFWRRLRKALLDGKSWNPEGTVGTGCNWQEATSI

The values below come from publication PMC11077363.

These are yes or no findings as the source states them, for the method shown. In cells and extracts the contact can be indirect. Some results given as binding are weak or reduced against the parent protein; the word gives no strength.

As for “IRAK1 (endogenous) (from UniProt P51617 1-712) (enzyme)”, in experiment [1], the binding entry was “binds”.

As for “TLR4 expressed in HEK293T for Figure 4K (from UniProt O00206 24-839) (receptor)”, the binding result in experiment [2] is given as “binds”.

As to “endogenous TLR4 (from UniProt O00206 24-839) (receptor)”, the binding entry in experiment [3] and in experiment [1] was “binds” throughout.
